Data on one compound can be found in US8133513B2, “Solid preparation having improved solubility” (Shionogi & Co., Ltd., priority 2006, dated 2012).

This series can be described thus: physchem.

≈ marks a conversion by molar mass, not a printed value.

A word on the solubility: it is the concentration that dissolves in the medium under given conditions. A high value points to a readily soluble substance. For the compound `COC(=O)C1=C(C)NC(C)=C(C(=O)OC)C1c1ccccc1[N+](=O)[O-]` [nifedipine, Nifedipine], the solubility was approximately 6 µg/mL (≈ 17.3 µM).
